From PubChem BioAssay AID504467 (National Center for Advancing Translational Sciences (NCATS), 2011)
Out of some 330,000 compounds screened, about 7,700 (2.3%) were called active. This list was built around the results that the source calls inconclusive (neither active nor inactive); the mix of calls is not that of the screen. Calls follow the shape of the dose curve; as a rule, active = well fitted inhibition curve with a large enough effect; inconclusive = small, poorly fitted or top-dose-only effect, or effect the other way; inactive = flat fitted curve, though single readings scatter. Potencies of inconclusive entries are doubtful fits and often do not repeat.

assay: qHTS screen for small molecules that inhibit ELG1-dependent DNA repair in human embryonic kidney (HEK293T) cells expressing luciferase-tagged ELG1; settings: HEK293T ELG1-luciferase reporter, luminescence, 16 h, DNA damage induced by 5-fluorouridine; activity change, negative = inhibition: at 46.1 µM (top of the series); also: nearly all actives have a fitted effect of over 55% in size
Procedure, shortened: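 5-Fluorouridine DNA damage + compound/DMSO, 2,000 cells/well, 16 h, 37 °C/5% CO2. ONE-Glo, 30 min RT, luminescence. Readout = decrease in reporter signal.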
% is scaled to controls: 0 for no effect and ±100 for the full control effect; potency is read from the fitted curve at half-maximal effect.

Row | SMILES | Potency | activity change, negative = inhibition
1 | Cc1ccc(S(=O)(=O)/N=C2\C=C(Nc3ccc(O)cc3)C(=O)c3ccccc32)cc1 | active: 10.3 µM | 
2 | CCOc1nc(C#N)nc(N2CCCCC2)n1 | inconclusive: 7.31 µM [inhibitor, partial curve] | 
3 | O=C(CN1C(=O)NC2(CCOc3ccccc32)C1=O)N1CCCCC1 (stereo not given) | inconclusive: 4.61 µM [activator, single point] | 
4 | CCOc1ccc(NC(=O)CN(C)C(=O)c2ccc(C3SCCS3)cc2)cc1OCC | inconclusive: 29.1 µM [inhibitor, single point] | 
5 | CCN(CC)S(=O)(=O)c1cccc(NC(=O)COC(=O)/C=C/c2ccco2)c1 |  | inactive: 1.68%
6 | COc1cc(OC)cc(C(=O)N[C@H](C(=O)OCC(=O)c2ccc(F)cc2)C(C)C)c1 |  | inactive: -6.76%
7 | CC1(C)CC(/C=C/c2ccccc2)=Nc2ccccc2N1 | inconclusive: 1.3 µM [activator, partial curve, poor fit] | 
8 | O=C1C2C3C=CC(C3)C2C(=O)N1c1nc2ccccc2s1 (stereo not given) |  | inactive: 28.4%
9 | CCOc1ccc(C2N(c3ccc(F)cc3)C(=O)C3CCCN32)cc1 (stereo not given) | inconclusive: 23.1 µM [activator, partial curve, poor fit] | 
10 | C[n+]1cc(C(=O)N2CCCCC2)ccc1/C=C/c1c[nH]c2ccccc12 |  | inactive: 3.11%
11 | CC(=NNC(=O)CCC(=O)Nc1ccccc1Cl)c1ccco1 |  | inactive: 19.7%
12 | CN(C)S(=O)(=O)c1cccc(NC(=S)NCc2ccc3c(c2)OCO3)c1 | inconclusive: 16.4 µM [inhibitor, single point] | 
13 | Nc1ccccc1OCCOc1ccccc1N | inconclusive: 29.1 µM [activator, single point] | 
14 | Cc1c(Br)c([N+](=O)[O-])nn1C(C)C(=O)N1CCc2ccccc2C1 (stereo not given) | inconclusive: 13 µM [activator, partial curve] | 
15 | C#CCNC(=O)C1=C[C@@H](c2coc3ccccc3c2=O)[C@H](CCCO)[C@@H](OCC)O1 | inconclusive: 13 µM [activator, partial curve, poor fit] | 
16 | Cc1ccccc1NC(=S)NNC(=O)c1ccoc1C | inconclusive: 16.4 µM [activator, partial curve] | 
17 | O=C(Nc1ccc(Cl)cc1)N1CCCN(c2ccc(C(F)(F)F)cc2[N+](=O)[O-])CC1 | inconclusive: 18.3 µM [inhibitor, single point] | 
18 | Cc1ccccc1/C(N)=N/OC(=O)N1c2ccccc2Sc2ccccc21 |  | inactive: 4.25%
19 | Cc1ccc(S(=O)(=O)Oc2ccccc2/C=N/NC(N)=S)cc1 |  | inactive: 21.1%
20 | O=C(c1ccc(Br)cc1)C(CN1CCOCC1)c1ccccc1 (stereo not given) | inconclusive: 29.1 µM [inhibitor, single point] | 
21 | CCOc1ccc(N(C)S(=O)(=O)c2cc(-c3cc(C)no3)ccc2C(C)C)cc1 | inconclusive: 16.4 µM [inhibitor, single point] | 
22 | CC(=O)C1=C(C)OC(N)=C(C#N)C1c1ccncc1 (stereo not given) |  | inactive: 10.2%
23 | Cc1nn(C)cc1CNC(=O)c1ccc(F)cc1 | inconclusive: 18.4 µM [activator, single point] | 
24 | CSc1ncccc1C(=O)OCC(=O)N(C)c1c(N)n(Cc2ccccc2)c(=O)[nH]c1=O |  | inactive: 17.9%

Row | SMILES | Potency | activity change, negative = inhibition
25 | CCN(C(=O)CCC(=O)N(CC)c1ccccc1)c1ccccc1 |  | inactive: -3.21%
26 | CC(C)(C)NC(=O)CSc1ccc(S(=O)(=O)N2CCOCC2)cn1 |  | inactive: -1.02%
27 | Cc1cccc(NC(=O)c2cccc3c2C(=O)c2ccccc2-3)c1 |  | inactive: 12.3%
28 | C=CCNC(=S)N(Cc1ccccc1)Cc1ccccc1 |  | inactive: -11.4%
29 | COc1ccc(CCNCC(O)COc2cccc(C(C)=O)c2)cc1OC (stereo not given) | inconclusive: 14.6 µM [inhibitor, partial curve, poor fit] | 
30 | CC(C)(C)C(=O)/C=C(N)/C=C/c1ccccc1 | inconclusive: 14.6 µM [activator, partial curve] | 
31 | COc1ccccc1C(=O)Nc1ccc2c(c1)n(C)c(=O)n2C | inconclusive: 23.1 µM [activator, single point] | 
32 | COc1ccc(C(=O)Nc2cccc(C(=O)NCc3ccccc3)c2)cc1 |  | inactive: -10.4%
33 | O=C(c1cccc(S(=O)(=O)N2CCOCC2)c1)N(Cc1ccc(F)cc1)Cc1ccco1 |  | inactive: -21.1%
34 | O=C(CCCc1ccccc1)N=C1SC2CS(=O)(=O)CC2N1c1ccccc1F (stereo not given) |  | inactive: 15.6%
35 | Cc1ccc(SCCNC(=O)/C=C/c2ccccc2Cl)cc1 | inconclusive: 20.6 µM [inhibitor, single point] | 
36 | COc1ccc2[nH]cc(CCN3C(=O)c4ccc(C(=O)O)cc4C3=O)c2c1 | inconclusive: 14.6 µM [activator, partial curve] | 
37 | C[C@@H](NC(=O)OC(C)(C)C)c1nnc(S(=O)(=O)Cc2ccccc2)o1 | inconclusive: 20.6 µM [activator, partial curve] | 
38 | CCC(NC(=O)NCc1cccnc1)(C(F)(F)F)C(F)(F)F |  | inactive: 11.4%
39 | Cc1cc(C(=O)NC2CC(C)(C)Cc3c2cnn3-c2ccccc2)n(C)n1 (stereo not given) |  | inactive: 5.19%
40 | O=C(NCCN1C(=O)S/C(=C\c2ccc(Cl)c(Cl)c2)C1=O)c1ccc2c(c1)C(=O)N(Cc1ccncc1)C2=O | active: 9.2 µM | 
41 | Cc1ccc(NC(=O)CCc2c(C)nn(-c3ccc(N4CCCCC4)nn3)c2C)cc1C | inconclusive: 29.1 µM [inhibitor, single point] | 
42 | CSc1sc(-c2ccnc(SCC(=O)C(C)(C)C)n2)c2c1C(=O)CC(C)(C)C2 | inconclusive: 2.59 µM [inhibitor, full curve] | 
43 | COc1cc(OC)c(C2=NOC(C(=O)N3CCCc4ccccc43)C2)cc1Cl (stereo not given) | inconclusive: 18.4 µM [inhibitor, single point] | 
44 | Cc1ccc(-c2ccc(=O)n(CCC(=O)N3CCN(Cc4ccccc4)CC3)n2)cc1 | inconclusive: 29.1 µM [inhibitor, single point] | 
45 | O=C1OCc2cc(NC(=O)C3COc4ccccc4O3)ccc21 (stereo not given) | inconclusive: 18.4 µM [activator, single point] | 
46 | Cc1ccc(OCC(=O)N/N=C\c2cccn2C)c([N+](=O)[O-])c1 | inconclusive: 29.1 µM [activator, partial curve, poor fit] | 
47 | O=[N+]([O-])c1cccnc1Oc1ccccc1F | inconclusive: 20.6 µM [activator, partial curve, poor fit] | 
48 | C(=C\c1nc(-c2ccccc2)no1)/c1ccccc1 | inconclusive: 3.66 µM [activator, full curve] | 

Reprinted at random: two compounds from above
Row | SMILES | Potency | activity change, negative = inhibition
43 | COc1cc(OC)c(C2=NOC(C(=O)N3CCCc4ccccc43)C2)cc1Cl (stereo not given) | inconclusive: 18.4 µM [inhibitor, single point] | 
11 | CC(=NNC(=O)CCC(=O)Nc1ccccc1Cl)c1ccco1 |  | inactive: 19.7%

(next part)

Row | SMILES | Potency | activity change, negative = inhibition
49 | COc1ccc(/C=N\NC(=O)c2ccccc2OC)cc1COc1ccccc1C | inconclusive: 16.4 µM [inhibitor, single point] | 
50 | COCc1cc(C)nc(SCc2ccc(F)cc2)c1C#N |  | inactive: 3.54%
51 | N#CCCCSc1nnc(-c2ccccn2)o1 | inconclusive: 20.6 µM [activator, partial curve] | 
52 | CC(C)[C@@H]1COC(c2cccc(C3=N[C@H](C(C)C)CO3)n2)=N1 |  | inactive: 10.7%
53 | Cc1ccsc1/C=C1\CCc2ccccc2C1=O | inconclusive: 0.517 µM [activator, full curve] | 
54 | CCOC(=O)/C(C#N)=C/c1c(N2CCN(c3ccccc3)CC2)nc2ccccn2c1=O | inconclusive: 23.1 µM [inhibitor, partial curve, poor fit] | 
55 | Cn1c(=O)c2c(nc(N3CCN(Cc4ccccc4)CC3)n2CCCc2ccccc2)n(C)c1=O | active: 11.6 µM | 
56 | CCOC(=O)c1cnc2c(ccc3ccccc32)c1NCCCN(C)C | inconclusive: 10.3 µM [activator, partial curve, poor fit] | 
57 | O=C(NCCCN1CCOCC1)C(=O)N/N=C/c1ccccc1O | inconclusive: 18.3 µM [inhibitor, single point] | 
58 | COc1ccc(C2c3ccc(O)cc3Oc3ncn4nc(-c5ccco5)nc4c32)cc1OC (stereo not given) |  | inactive: 2.27%
59 | CCCCCCCCCCC[N+](C)(C)CC/C=C1/c2ccccc2Sc2ccc(Cl)cc21 |  | inactive: -15.6%
60 | CC(C)C(c1nnnn1Cc1ccc2c(c1)OCO2)N1CCN(C)CC1 (stereo not given) |  | inactive: -0.0502%
61 | COc1cccc(Cn2c(NCc3cccnc3)nc3c2c(=O)n(C)c(=O)n3C)c1 | inconclusive: 35.5 µM [inhibitor, single point] | 
62 | Cc1ccsc1/C=C1/NC(=O)N(Cc2ccc(F)cc2)C1=O | inconclusive: 23.1 µM [activator, partial curve, poor fit] | 
63 | O=C1C(=O)N(CCN2CCOCC2)C(c2ccc([N+](=O)[O-])cc2)/C1=C(/O)c1ccc2c(c1)OCO2 (stereo not given) | inconclusive: 18.3 µM [activator, partial curve] | 
64 | O=C(CNC(=S)NC(=O)c1ccc(Br)o1)c1ccccc1 | inconclusive: 16.4 µM [activator, single point] | 
65 | Cc1cc(Cl)cc2c1NC(=O)[C@]21[C@@H]2C(=O)N(Cc3ccccc3)C(=O)[C@@H]2[C@@H]2CCCN21 | inconclusive: 20.6 µM [inhibitor, single point] | 
66 | O=C(Nc1ccccc1C(=O)O)c1cc(S(=O)(=O)Nc2cccc(F)c2)ccc1Cl |  | inactive: -8.92%
67 | Cc1cc(C)c(S(=O)(=O)N2CCN(c3ccc([N+](=O)[O-])c(-n4nc(C)cc4C)c3)CC2)c(C)c1 | inconclusive: 10.3 µM [inhibitor, partial curve] | 
68 | CCCCN1CC(=O)N2Cc3[nH]c4ccccc4c3C[C@H]2C1=O |  | inactive: 3.21%
69 | Cn1c(=O)c2c(nc(N3CCOCC3)n2CC(=O)C23CC4CC(CC(C4)C2)C3)n(C)c1=O | inconclusive: 29.1 µM [inhibitor, single point] | 
70 | CCOC(=O)[C@@H]1[C@H]2COc3ccccc3[C@@H]2N2C(=O)N(c3ccc(Cl)cc3)C(=O)[C@]12C |  | inactive: 9.06%

Numbers 62 to 63 of the list above:
Row | SMILES | Potency | activity change, negative = inhibition
62 | Cc1ccsc1/C=C1/NC(=O)N(Cc2ccc(F)cc2)C1=O | inconclusive: 23.1 µM [activator, partial curve, poor fit] | 
63 | O=C1C(=O)N(CCN2CCOCC2)C(c2ccc([N+](=O)[O-])cc2)/C1=C(/O)c1ccc2c(c1)OCO2 (stereo not given) | inconclusive: 18.3 µM [activator, partial curve] | 
